Experimental data from PMC3629710.

The chains behind the UniProt entries cited, without tags or fusion partners. Where a name states a change or a piece, a line headed by the entry shows the natural chain unless it says otherwise.
UniProt Q13905: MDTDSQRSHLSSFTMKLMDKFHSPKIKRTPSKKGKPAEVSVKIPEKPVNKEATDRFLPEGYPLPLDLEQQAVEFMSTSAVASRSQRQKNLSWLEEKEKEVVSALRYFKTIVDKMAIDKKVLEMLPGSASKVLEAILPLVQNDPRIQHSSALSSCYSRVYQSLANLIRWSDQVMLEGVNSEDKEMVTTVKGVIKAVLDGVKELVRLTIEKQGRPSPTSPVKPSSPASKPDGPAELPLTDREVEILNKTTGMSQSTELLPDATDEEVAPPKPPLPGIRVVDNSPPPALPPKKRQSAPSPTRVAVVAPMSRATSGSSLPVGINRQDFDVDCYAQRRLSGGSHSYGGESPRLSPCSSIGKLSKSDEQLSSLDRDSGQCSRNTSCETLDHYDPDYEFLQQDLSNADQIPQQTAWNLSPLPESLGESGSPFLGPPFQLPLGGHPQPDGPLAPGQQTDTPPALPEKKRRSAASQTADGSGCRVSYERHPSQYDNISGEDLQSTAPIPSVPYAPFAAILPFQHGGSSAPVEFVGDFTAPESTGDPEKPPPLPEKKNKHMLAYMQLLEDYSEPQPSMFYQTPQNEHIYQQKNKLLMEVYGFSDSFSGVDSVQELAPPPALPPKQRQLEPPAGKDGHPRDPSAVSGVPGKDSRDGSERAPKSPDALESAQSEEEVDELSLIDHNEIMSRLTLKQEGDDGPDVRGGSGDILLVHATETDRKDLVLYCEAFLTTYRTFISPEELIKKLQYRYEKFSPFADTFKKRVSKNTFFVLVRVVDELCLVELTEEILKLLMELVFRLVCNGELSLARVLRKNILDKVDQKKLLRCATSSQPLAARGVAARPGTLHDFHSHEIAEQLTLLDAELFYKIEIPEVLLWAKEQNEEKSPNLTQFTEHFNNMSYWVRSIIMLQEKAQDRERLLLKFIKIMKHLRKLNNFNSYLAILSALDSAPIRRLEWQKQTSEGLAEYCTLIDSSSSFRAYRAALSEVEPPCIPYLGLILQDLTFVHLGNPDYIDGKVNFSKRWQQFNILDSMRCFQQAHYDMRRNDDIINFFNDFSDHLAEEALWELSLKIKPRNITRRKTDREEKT

Target: C3G (endogenous, isoform not told in the immunoprecipitations) (human (endogenous in K562)) (UniProt Q13905)
Assay: co-IP; endogenous proteins immunoprecipitated from precleared K562 whole cell lysates (GammaBind G Sepharose), immunoblot; in Figures 5A and 6E cells cultured on 10 ug/ml fibronectin for 24 h; in Figure 6E shC3G or shCT clones

- binding: binds
B1: p130Cas (protein, UniProt P56945-1 1-870)
chain: MNHLNVLAKALYDNVAESPDELSFRKGDIMTVLEQDTQGLDGWWLCSLHGRQGIVPGNRLKILVGMYDKKPAGPGPGPPATPAQPQPGLHAPAPPASQYTPMLPNTYQPQPDSVYLVPTPSKAQQGLYQVPGPSPQFQSPPAKQTSTFSKQTPHHPFPSPATDLYQVPPGPGGPAQDIYQVPPSAGMGHDIYQVPPSMDTRSWEGTKPPAKVVVPTRVGQGYVYEAAQPEQDEYDIPRHLLAPGPQDIYDVPPVRGLLPSQYGQEVYDTPPMAVKGPNGRDPLLEVYDVPPSVEKGLPPSNHHAVYDVPPSVSKDVPDGPLLREETYDVPPAFAKAKPFDPARTPLVLAAPPPDSPPAEDVYDVPPPAPDLYDVPPGLRRPGPGTLYDVPRERVLPPEVADGGVVDSGVYAVPPPAEREAPAEGKRLSASSTGSTRSSQSASSLEVAGPGREPLELEVAVEALARLQQGVSATVAHLLDLAGSAGATGSWRSPSEPQEPLVQDLQAAVAAVQSAVHELLEFARSAVGNAAHTSDRALHAKLSRQLQKMEDVHQTLVAHGQALDAGRGGSGATLEDLDRLVACSRAVPEDAKQLASFLHGNASLLFRRTKATAPGPEGGGTLHPNPTDKTSSIQSRPLPSPPKFTSQDSPDGQYENSEGGWMEDYDYVHLQGKEEFEKTQKELLEKGSITRQGKSQLELQQLKQFERLEQEVSRPIDHDLANWTPAQPLAPGRTGGLGPSDRQLLLFYLEQCEANLTTLTNAVDAFFTAVATNQPPKIFVAHSKFVILSAHKLVFIGDTLSRQAKAADVRSQVTHYSNLLCDLLRGIVATTKAAALQYPSPSAAQDMVERVKELGHSTQQFRRVLGQLAAA

These are yes or no findings as the source states them, for the method shown. In cells and extracts the contact can be indirect. Binding can be weak; no strength is given.
